Taken from: PubChem BioAssay AID1671195 (Yale University, 2021)
Shown is an unselected part of about 22,000 reagents tested. Over the whole deposit, about 1,510 (6.9%) were called active. 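Active includes knockdowns raising or lowering LDL uptake; positive z-scores mean more uptake, negative mean less.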 Unmarked entries are inactive.

Aim: 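Regulators of LDL receptor activity judged by labelled LDL uptake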 (primary screen)
Cell system: human Huh7 hepatoma cells
Reagent: siRNA pool against human genes, 18 nM
Timing: about 2 to 2.5 days of knockdown, then 8 h LDL uptake
Challenge: DiI-labelled LDL at 30 µg/ml for 8 h, in lipoprotein-deficient serum medium
Read-out: 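Per-cell DiI-LDL intensity by automated imaging; well means scaled to the plate median and given as a robust z-score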
Scale: robust z-score: higher = more LDL uptake after knockdown
Hit rule: 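Active when two or more replicates show a robust z-score above 2 or below -2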

| Gene | PubChem SID | robust z-score, replicate 1 | robust z-score, replicate 2 | robust z-score, replicate 3 |
| --- | --- | --- | --- | --- |
| RINL | SID442897712 | 0.189 | -0.752 | -0.684 |
| ACSL1 | SID442885919 | 1.9 | 0.727 | 1.35 |
| SPIN1 | SID442894226 | -0.964 | 1.33 | -0.49 |
| TDRD12 | SID442903615 | -0.744 | -1.66 | -1.62 |
| MYO9A | SID442892351 | 0.0158 | 0.447 | 0.0694 |
| PSRC1 | SID442888175 | 0.728 | 0.859 | 0.729 |
| CD200 | SID442885138 | 1.64 | 1.43 | 1.92 |
| NFIL3 | SID442890545 | 0.0575 | 0.689 | 0.462 |
| EARS2 | SID442885237 | 1.77 | 1.79 | 1.27 |
| C18orf32 | SID442887532 | 0.737 | 0.717 | 1.23 |
| UPK3A | SID442901821 | -1.29 | -0.967 | -0.641 |
| CORO1C | SID442890741 | 2.2 | -0.959 | -0.12 |
| CHMP4C | SID442892120 | 1.18 | -0.65 | 0.0834 |
| MAP2K6 | SID442887418 | 1.23 | 0.509 | 1.01 |
| KRTAP5-2 | SID442885991 | 0.866 | 1.73 | 1.3 |
| MMP8 | SID442885933 | 2.29 | 0.564 | 1.11 |
| LTBP3 | SID442888635 | 1.27 | 0.584 | 0.205 |
| NKAPD1 | SID442884876 | 1.57 | 1.62 | 2.27 |
| RALGPS1 | SID442902255 | -0.621 | -0.941 | -1.55 |
| GKN1 | SID442893302 | 0.23 | -0.0348 | -0.00107 |
| BCAP29 | SID442894487 | 0.0372 | 0.358 | -0.601 |
| ZNF100 | SID442900106 | -0.59 | -0.848 | -0.701 |
| VAV2 | SID442891037 | -0.495 | 0.736 | 0.775 |
| DHX15 | SID442897293 | -0.19 | -1.19 | 0.266 |
| PRR35 | SID442898488 | -0.602 | -0.547 | -0.364 |
| MOS | SID442899591 | -0.632 | -0.22 | -1.07 |
| BIRC2 | SID442883929 | 2.11 (active) | 2.69 | 1.63 |
| C15orf32 | SID442893613 | -0.224 | 0.647 | -0.333 |
| TMEM95 | SID442884794 | 1.86 | 1.85 | 1.96 |
| ASS1P14 | SID442900749 | -0.88 | -0.802 | -0.722 |
| PERM1 | SID442887816 | 1.04 | 0.71 | 0.758 |
| UPB1 | SID442883211 | 2.58 (active) | 4.64 | 4.44 |
| YAE1 | SID442895251 | 0.156 | 0.124 | -0.731 |
| DENND2B | SID442889793 | -0.206 | 0.219 | 1.51 |
| DNAJA1 | SID442889168 | 0.66 | 0.511 | 0.633 |
| OR52K2 | SID442891922 | 0.514 | 0.298 | -0.124 |
| GOSR2 | SID442885522 | 1.3 | 1.46 | 1.68 |
| BPIFC | SID442892806 | 0.174 | 0.147 | 0.0434 |
| FGF12 | SID442894207 | 0.154 | -0.258 | -0.0107 |
| SLC26A5 | SID442891501 | 0.545 | -0.201 | 0.492 |
| TNKS2 | SID442895304 | -0.0155 | -0.296 | -0.158 |
| DKK2 | SID442891874 | -1.32 | 1.8 | 0.232 |
| CEACAM19 | SID442883787 | 1.01 (active) | 3.13 | 2.84 |
| AUH | SID442904299 | -1.76 | -1.31 | -1.64 |
| LOC440506 (retired record) | SID442891925 | 0.527 | 0.11 | 0.0505 |
| ATG4C | SID442902929 | -1.11 | -0.968 | -1.46 |
| WIF1 | SID442892241 | 0.759 | -0.454 | 0.276 |
| TMEM169 | SID442884151 | 2.47 (active) | 1.24 | 1.92 |
| CCNYL1 | SID442904426 | -1.65 | -2 | -1.26 |
| KIRREL1 | SID442892839 | 0.731 | -0.612 | 0.234 |
| KIF24 | SID442901666 | -1.01 | -0.661 | -1.14 |
| KIF24 | SID442903436 | -1.41 | -1.37 | -1.12 |
| GSTT2 | SID442890855 | -0.0902 | 0.689 | 0.486 |
| LOC440158 (retired record) | SID442902692 | -1.1 | -1.23 | -1.05 |
| FBF1 | SID442889113 | 0.465 | 1.03 | 0.336 |
| LOC440190 (retired record) | SID442886405 | 1.18 | 1.43 | 0.899 |
| NAT16 | SID442899312 | -0.886 | -0.457 | -0.467 |
| DIAPH1 | SID442900963 | -0.607 | -0.0237 | -1.87 |
| HARBI1 | SID442888215 | 0.566 | 0.621 | 1.11 |
| MRM1 | SID442896935 | -0.316 | 0.0974 | -0.766 |
| LOC389950 (retired record) | SID442886335 | 0.936 | 1.63 | 0.998 |
| SMIM34 | SID442897588 | -0.32 | -0.413 | -0.473 |
| ENTPD1 | SID442901213 | -0.681 | -0.721 | -1.2 |
| NXPH2 | SID442902422 | -1.17 | -1.73 | -0.312 |
| TMTC3 | SID442904357 | -1.96 | -1.29 | -1.54 |
| SNAPC3 | SID442900751 | -0.908 | -1.31 | -0.187 |
| OR2V2 | SID442888745 | 0.326 | 0.21 | 1.47 |
| AGPAT2 | SID442888926 | 0.602 | 1.15 | 0.162 |

Targets listed so far whose gene name begins with B or b (3):
| Gene | PubChem SID | robust z-score, replicate 1 | robust z-score, replicate 2 | robust z-score, replicate 3 |
| --- | --- | --- | --- | --- |
| BCAP29 | SID442894487 | 0.0372 | 0.358 | -0.601 |
| BIRC2 | SID442883929 | 2.11 (active) | 2.69 | 1.63 |
| BPIFC | SID442892806 | 0.174 | 0.147 | 0.0434 |
